± gives the standard deviation of the averaged measurements. Repeats in this data set agree poorly, so a single value says little.
Legend:
[1] = compound: T1, CC[C@@H](C)Nc1cc(C(=O)N[C@H]2C[C@H]3CC[C@@H](C2)N3c2ccc(C(=O)C3CC3)cn2)c(C)cc1C(N)=O [XL888]; test: phosphopeptide melting temperature shift (XL888 minus DMSO); higher = stabilised by drug treatment; conditions: 100 µM; treatment time 2 h; layout: intact cells; SK-Mel 28
Protocol: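 Phospho-TPP in intact SK-Mel 28 cells treated with 100 uM XL888 or DMSO for 2 h, heated at 10 temperatures (37-67 C) for 3 min, soluble fraction TMT10plex-labelled and TiO2 phospho-enriched. Melting curves were fitted per phosphopeptide; the value is the melting point difference (drug minus vehicle) in each of two biological replicates.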

Protein sequences, listed by entry. Tags and fused reporters are not part of them. Lines headed by an entry give the natural chain unless they say otherwise; changes in a name come on top.
UniProt P51812, whole entry, looked up: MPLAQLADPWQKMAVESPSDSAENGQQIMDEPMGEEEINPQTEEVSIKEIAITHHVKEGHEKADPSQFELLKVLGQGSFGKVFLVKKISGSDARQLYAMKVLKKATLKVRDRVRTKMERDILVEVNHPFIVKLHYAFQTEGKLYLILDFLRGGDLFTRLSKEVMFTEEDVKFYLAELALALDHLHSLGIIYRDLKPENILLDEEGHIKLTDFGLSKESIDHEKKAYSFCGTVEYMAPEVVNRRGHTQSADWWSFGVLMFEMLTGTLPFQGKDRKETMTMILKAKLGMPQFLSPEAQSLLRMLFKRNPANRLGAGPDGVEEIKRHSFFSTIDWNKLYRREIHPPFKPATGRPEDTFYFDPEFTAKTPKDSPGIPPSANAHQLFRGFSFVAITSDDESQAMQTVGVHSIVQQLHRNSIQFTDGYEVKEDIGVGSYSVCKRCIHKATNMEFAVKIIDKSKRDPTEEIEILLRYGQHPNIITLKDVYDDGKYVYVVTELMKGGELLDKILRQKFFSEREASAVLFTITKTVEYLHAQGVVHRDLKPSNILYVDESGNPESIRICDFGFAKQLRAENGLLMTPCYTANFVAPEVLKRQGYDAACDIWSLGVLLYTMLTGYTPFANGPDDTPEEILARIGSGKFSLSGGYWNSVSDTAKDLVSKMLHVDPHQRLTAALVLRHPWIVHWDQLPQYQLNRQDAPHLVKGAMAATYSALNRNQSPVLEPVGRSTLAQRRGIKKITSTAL
UniProt O60841: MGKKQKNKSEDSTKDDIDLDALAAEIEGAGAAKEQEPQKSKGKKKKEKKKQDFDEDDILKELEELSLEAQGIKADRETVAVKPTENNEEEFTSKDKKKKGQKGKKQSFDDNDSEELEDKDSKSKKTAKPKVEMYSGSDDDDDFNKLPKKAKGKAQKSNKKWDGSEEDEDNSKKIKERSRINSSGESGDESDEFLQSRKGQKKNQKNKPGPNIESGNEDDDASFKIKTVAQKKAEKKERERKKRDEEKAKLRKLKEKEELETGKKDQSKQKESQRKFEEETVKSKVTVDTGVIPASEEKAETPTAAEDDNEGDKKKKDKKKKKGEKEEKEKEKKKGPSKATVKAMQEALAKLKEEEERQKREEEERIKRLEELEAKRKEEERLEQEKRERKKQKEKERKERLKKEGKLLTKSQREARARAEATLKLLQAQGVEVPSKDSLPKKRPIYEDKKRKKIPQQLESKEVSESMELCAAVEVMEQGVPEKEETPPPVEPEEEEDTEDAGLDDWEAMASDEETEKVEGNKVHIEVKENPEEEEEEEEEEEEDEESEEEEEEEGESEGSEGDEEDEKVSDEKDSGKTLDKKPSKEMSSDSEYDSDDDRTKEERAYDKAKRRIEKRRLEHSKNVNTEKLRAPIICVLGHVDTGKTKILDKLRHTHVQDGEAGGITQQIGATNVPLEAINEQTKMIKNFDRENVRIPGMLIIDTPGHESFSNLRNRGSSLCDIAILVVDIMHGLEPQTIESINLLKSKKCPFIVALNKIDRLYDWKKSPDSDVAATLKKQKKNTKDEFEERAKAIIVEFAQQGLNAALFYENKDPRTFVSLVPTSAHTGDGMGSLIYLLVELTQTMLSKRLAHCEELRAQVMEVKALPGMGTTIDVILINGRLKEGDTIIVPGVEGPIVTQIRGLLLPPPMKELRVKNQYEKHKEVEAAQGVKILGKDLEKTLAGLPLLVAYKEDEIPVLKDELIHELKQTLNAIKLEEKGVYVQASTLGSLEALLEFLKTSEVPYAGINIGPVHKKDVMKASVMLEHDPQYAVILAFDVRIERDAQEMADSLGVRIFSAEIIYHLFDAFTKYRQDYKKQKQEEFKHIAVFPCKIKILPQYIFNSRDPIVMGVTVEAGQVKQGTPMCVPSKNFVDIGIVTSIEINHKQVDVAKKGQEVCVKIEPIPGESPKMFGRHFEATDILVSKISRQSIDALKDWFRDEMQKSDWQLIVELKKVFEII
UniProt Q9NYF8, whole entry, looked up: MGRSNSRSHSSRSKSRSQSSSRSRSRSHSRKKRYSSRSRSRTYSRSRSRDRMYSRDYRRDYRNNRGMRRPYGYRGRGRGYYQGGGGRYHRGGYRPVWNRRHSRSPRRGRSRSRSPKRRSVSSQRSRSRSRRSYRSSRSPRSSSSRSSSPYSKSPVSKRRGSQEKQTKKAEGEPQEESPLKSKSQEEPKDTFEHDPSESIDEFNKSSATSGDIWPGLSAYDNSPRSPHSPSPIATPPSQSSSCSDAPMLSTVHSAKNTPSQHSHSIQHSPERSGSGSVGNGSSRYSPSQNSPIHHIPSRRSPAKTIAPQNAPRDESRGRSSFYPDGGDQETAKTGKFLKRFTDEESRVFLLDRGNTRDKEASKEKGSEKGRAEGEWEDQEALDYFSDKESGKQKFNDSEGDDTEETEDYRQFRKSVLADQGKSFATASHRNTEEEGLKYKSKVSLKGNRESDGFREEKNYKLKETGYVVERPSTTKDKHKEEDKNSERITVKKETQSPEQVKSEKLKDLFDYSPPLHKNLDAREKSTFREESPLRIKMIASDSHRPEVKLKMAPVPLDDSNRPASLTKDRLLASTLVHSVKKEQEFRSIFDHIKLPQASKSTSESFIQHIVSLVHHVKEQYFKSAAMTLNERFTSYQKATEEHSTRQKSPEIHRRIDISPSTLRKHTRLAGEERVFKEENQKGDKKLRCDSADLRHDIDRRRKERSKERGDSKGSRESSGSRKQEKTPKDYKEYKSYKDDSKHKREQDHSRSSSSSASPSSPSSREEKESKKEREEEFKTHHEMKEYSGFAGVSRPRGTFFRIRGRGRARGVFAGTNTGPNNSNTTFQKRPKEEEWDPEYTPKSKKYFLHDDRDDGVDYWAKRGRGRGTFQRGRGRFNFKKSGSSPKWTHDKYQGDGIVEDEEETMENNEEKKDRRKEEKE
UniProt Q6Y7W6: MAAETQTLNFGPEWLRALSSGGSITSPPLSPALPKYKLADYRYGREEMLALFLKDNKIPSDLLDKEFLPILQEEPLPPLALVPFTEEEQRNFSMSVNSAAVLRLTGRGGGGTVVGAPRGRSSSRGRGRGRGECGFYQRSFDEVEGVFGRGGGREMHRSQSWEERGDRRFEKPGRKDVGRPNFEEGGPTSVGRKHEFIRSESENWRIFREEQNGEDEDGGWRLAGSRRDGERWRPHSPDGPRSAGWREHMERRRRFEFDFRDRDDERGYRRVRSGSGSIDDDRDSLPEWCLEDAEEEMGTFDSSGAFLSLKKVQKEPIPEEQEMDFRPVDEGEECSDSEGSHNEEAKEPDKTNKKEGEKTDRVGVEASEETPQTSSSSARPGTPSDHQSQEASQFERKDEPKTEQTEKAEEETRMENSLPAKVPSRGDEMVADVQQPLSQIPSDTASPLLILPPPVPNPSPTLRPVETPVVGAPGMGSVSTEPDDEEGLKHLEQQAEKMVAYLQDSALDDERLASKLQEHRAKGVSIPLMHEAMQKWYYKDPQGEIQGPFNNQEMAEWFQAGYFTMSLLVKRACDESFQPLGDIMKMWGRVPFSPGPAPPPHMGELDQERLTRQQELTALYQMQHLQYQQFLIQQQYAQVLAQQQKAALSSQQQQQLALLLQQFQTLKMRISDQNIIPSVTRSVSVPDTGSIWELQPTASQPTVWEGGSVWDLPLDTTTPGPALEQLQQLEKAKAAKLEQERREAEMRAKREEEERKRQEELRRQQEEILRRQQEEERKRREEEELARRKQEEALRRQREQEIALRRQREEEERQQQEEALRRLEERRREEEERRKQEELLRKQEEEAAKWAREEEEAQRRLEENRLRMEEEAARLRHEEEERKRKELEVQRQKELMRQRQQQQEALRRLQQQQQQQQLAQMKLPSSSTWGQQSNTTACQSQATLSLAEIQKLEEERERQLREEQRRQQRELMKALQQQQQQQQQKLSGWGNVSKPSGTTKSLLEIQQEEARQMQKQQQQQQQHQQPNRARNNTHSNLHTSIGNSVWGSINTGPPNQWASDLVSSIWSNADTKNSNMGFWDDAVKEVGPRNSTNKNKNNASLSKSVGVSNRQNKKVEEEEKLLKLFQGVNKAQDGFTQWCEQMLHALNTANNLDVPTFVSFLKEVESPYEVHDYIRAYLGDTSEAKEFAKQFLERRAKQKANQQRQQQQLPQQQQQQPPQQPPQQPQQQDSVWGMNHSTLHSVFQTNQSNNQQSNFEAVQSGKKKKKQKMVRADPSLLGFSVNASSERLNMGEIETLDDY
UniProt P51858: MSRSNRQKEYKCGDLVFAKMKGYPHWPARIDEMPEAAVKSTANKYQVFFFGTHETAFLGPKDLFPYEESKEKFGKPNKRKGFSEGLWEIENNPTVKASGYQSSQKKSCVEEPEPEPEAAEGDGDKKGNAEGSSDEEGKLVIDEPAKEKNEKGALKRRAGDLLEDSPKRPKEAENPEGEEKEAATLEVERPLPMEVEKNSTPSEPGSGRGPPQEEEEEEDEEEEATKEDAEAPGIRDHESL
UniProt Q9NXC5: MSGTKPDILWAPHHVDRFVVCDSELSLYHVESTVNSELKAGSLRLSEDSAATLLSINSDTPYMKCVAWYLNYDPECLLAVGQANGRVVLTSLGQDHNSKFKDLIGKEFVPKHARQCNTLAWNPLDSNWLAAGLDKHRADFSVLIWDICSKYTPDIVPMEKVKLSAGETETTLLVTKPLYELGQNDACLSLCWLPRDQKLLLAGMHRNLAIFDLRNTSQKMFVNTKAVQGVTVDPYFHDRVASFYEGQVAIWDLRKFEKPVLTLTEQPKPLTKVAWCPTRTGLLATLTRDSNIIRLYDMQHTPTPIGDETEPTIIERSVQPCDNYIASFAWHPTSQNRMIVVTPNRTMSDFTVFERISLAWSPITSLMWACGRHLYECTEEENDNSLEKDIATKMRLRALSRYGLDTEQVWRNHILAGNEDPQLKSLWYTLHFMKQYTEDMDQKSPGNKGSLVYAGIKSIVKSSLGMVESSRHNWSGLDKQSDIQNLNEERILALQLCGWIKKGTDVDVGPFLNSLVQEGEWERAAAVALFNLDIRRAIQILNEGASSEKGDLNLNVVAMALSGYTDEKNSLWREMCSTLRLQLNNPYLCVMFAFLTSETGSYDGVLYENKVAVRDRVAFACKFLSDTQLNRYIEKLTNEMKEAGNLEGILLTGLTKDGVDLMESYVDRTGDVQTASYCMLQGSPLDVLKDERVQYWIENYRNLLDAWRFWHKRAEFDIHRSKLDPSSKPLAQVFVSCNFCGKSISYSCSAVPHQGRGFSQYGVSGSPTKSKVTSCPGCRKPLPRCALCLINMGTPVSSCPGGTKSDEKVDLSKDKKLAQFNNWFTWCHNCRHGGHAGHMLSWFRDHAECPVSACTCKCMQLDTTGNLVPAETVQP
UniProt Q15057: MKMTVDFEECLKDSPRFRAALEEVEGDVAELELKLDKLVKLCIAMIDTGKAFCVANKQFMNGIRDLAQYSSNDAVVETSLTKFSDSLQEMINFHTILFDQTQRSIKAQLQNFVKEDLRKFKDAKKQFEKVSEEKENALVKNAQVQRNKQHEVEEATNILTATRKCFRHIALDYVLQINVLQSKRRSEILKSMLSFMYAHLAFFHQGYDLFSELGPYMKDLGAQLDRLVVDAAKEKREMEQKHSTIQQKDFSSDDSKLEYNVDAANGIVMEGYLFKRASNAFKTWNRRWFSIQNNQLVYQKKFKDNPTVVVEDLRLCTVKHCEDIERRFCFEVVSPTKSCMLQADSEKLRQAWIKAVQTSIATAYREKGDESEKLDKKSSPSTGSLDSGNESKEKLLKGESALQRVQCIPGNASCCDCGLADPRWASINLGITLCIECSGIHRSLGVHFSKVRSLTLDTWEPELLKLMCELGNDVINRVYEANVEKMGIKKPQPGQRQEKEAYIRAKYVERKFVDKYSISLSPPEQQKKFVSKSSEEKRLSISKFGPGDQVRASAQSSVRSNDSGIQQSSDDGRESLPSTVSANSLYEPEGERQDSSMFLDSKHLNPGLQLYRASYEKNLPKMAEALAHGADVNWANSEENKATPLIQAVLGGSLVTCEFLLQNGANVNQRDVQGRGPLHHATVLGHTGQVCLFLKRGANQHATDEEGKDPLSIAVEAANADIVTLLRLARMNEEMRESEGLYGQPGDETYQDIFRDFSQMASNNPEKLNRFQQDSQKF
UniProt Q9UK58: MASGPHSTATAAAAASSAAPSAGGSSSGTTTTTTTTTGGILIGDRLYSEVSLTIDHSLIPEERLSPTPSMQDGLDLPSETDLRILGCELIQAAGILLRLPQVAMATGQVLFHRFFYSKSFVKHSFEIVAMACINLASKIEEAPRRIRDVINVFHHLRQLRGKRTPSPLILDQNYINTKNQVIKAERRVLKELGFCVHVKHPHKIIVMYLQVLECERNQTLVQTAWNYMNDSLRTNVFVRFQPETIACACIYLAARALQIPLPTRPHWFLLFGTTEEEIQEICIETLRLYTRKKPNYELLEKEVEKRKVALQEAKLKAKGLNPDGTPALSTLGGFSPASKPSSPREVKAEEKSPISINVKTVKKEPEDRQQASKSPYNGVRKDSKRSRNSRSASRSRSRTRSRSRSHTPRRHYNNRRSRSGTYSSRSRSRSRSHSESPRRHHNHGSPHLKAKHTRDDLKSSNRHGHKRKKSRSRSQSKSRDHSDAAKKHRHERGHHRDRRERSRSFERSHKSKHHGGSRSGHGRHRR

[2] = compound: T1, XL888; test: as above; conditions: 100 µM; treatment time 2 h; layout: intact cells; SK-Mel 24
Protocol: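 Phospho-TPP in intact SK-Mel 24 cells treated with 100 uM XL888 or DMSO for 2 h, heated at 10 temperatures (37-67 C) for 3 min, soluble fraction TMT10plex-labelled and TiO2 phospho-enriched. Melting curves were fitted per phosphopeptide; the value is the melting point difference (drug minus vehicle) in each of two biological replicates.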

Row | Target | phosphopeptide melting temperature shift [1] [°C] | phosphopeptide melting temperature shift [2] [°C]
1 | RRBP1 phosphosite_573 (phosphosite position: 573) (UniProt Q9P2E9) | -1.2 | -0.36
2 | UniProt P51812_phosphosite_369 (phosphosite position: 369) | 0.307 ± 0.55 | 0.818
3 | UniProt Q8WYL5-4_phosphosite_625 (phosphosite position: 625) | 1.41 ± 2.3 | 0.357
4 | UniProt Q9C040_phosphosite_440 (phosphosite position: 440) | 0.611 ± 0.74 | 0.535 ± 0.28
5 | UniProt P60174-1_phosphosite_21 (phosphosite position: 21) | 0.253 ± 0.069 | 0.689 ± 0.27
6 | UniProt O43815-2_phosphosite_233 (phosphosite position: 233) | 0.942 ± 0.34 | 0.256
7 | UBL7 phosphosite_230 (phosphosite position: 230) (UniProt Q96S82) | 0.304 ± 1.2 | 0.395
8 | HTATSF1 phosphosite_676 (phosphosite position: 676) (UniProt O43719) | 2.46 | 0.839
9 | UniProt Q9NYV4-2_phosphosite_423 (phosphosite position: 423) | 0.603 | 0.0247 ± 0.034
10 | MAP1B phosphosite_937 (phosphosite position: 937) (UniProt P46821) | 0.587 ± 0.98 | -0.216
11 | DKC1 phosphosite_494 (phosphosite position: 494) (UniProt O60832) | -1.51 ± 0.78 | -1.84
12 | LARP7 phosphosite_261 (phosphosite position: 261) (UniProt Q4G0J3) | 1.71 ± 0.51 | 0.339
13 | IGF2R phosphosite_2409 (phosphosite position: 2409) (UniProt P11717) | 0.681 ± 1.4 | -3.16
14 | SGTA phosphosite_81 (phosphosite position: 81) (UniProt O43765) | 2.69 ± 1 | 0.424
15 | UniProt P25325-2_phosphosite_15 (phosphosite position: 15) | 1.32 | 0.795
16 | RRBP1 phosphosite_1276 (phosphosite position: 1276) (UniProt Q9P2E9) | 1.88 ± 1.8 | 0.273
17 | HDAC1 phosphosite_393 (phosphosite position: 393) (UniProt Q13547) | 1.11 ± 0.46 | -0.0977
18 | UBXN7 phosphosite_288 (phosphosite position: 288) (UniProt O94888) | 1.26 | -1.45
19 | SRRM2 phosphosite_994 (phosphosite position: 994) (UniProt Q9UQ35) | 3.56 ± 1.1 | 3.57
20 | UniProt Q12802-4_phosphosite_1584 (phosphosite position: 1584) | 0.514 ± 0.14 | -1.42
21 | EIF5B phosphosite_511 (phosphosite position: 511) (UniProt O60841) | 1.59 | -0.108
22 | UniProt Q9NYF8-3_phosphosite_383 (phosphosite position: 383) | 0.867 ± 0.29 | 2.82
23 | UniProt Q9UK59-2_phosphosite_282 (phosphosite position: 282) | 4.57 | 0.0181

Row | Target | phosphopeptide melting temperature shift [1] [°C] | phosphopeptide melting temperature shift [2] [°C]
24 | HSPD1 phosphosite_70 (phosphosite position: 70) (UniProt P10809) | 0.464 | 0.155
25 | UniProt P21359-2_phosphosite_2522 (phosphosite position: 2522) | -0.038 | 0.11 ± 0.16
26 | HS1BP3 phosphosite_194 (phosphosite position: 194) (UniProt Q53T59) | 2.61 | 0.136 ± 0.068
27 | UniProt Q6ICG6-3_phosphosite_328 (phosphosite position: 328) | 1.27 ± 0.7 | 0.528 ± 1.4
28 | TPMT phosphosite_14 (phosphosite position: 14) (UniProt P51580) | 0.6 ± 0.33 | 0.114
29 | GIGYF2 phosphosite_382 (phosphosite position: 382) (UniProt Q6Y7W6) | -0.422 ± 4.7 | -0.911
30 | CDK2 phosphosite_14 (phosphosite position: 14) (UniProt P24941) | 3.66 ± 0.94 | 1.45 ± 0.89
31 | UniProt Q8WWM7-6_phosphosite_594 (phosphosite position: 594) | -0.315 ± 1.2 | -0.44
32 | HNRNPH1 phosphosite_104 (phosphosite position: 104) (UniProt P31943) | 2.73 ± 3.4 | 0.504
33 | UniProt P21127-9_phosphosite_81 (phosphosite position: 81) | 3.38 ± 2 | 2.03
34 | UniProt P85037-2_phosphosite_50 (phosphosite position: 50) | 0.841 | 0.949
35 | HDGF phosphosite_132 (phosphosite position: 132) (UniProt P51858) | 1.004 ± 0.0035 | -0.469
36 | UniProt Q66K74-2_phosphosite_703 (phosphosite position: 703) | -0.466 ± 0.97 | -0.517
37 | MCM2 phosphosite_27 (phosphosite position: 27) (UniProt P49736) | -1.32 ± 0.63 | 2.96
38 | MIOS phosphosite_766 (phosphosite position: 766) (UniProt Q9NXC5) | 2.58 ± 0.8 | 0.487
39 | MCM3 phosphosite_672 (phosphosite position: 672) (UniProt P25205) | -1.49 | -0.991
40 | UniProt Q9NYB9-2_phosphosite_177 (phosphosite position: 177) | 1.24 | 0.315 ± 0.57
41 | ACAP2 phosphosite_521 (phosphosite position: 521) (UniProt Q15057) | 0.749 | 1.43
42 | UniProt Q9C0D5-2_phosphosite_164 (phosphosite position: 164) | 0.654 ± 1.7 | 0.559
43 | UniProt Q15036-2_phosphosite_384 (phosphosite position: 384) | -0.175 ± 0.51 | -0.535
44 | SRFBP1 phosphosite_264 (phosphosite position: 264) (UniProt Q8NEF9) | 2.11 | 1.02
45 | CCNL1 phosphosite_352 (phosphosite position: 352) (UniProt Q9UK58) | 0.31 | -1.53 ± 0.59
46 | AKAP11 phosphosite_1242 (phosphosite position: 1242) (UniProt Q9UKA4) | -1.64 | 1.26

Whole records, quoted from the list. Values in the order: phosphopeptide melting temperature shift [1] [°C]	phosphopeptide melting temperature shift [2] [°C]
UniProt P21359-2_phosphosite_2522 (phosphosite position: 2522) is entered as -0.038	0.11 ± 0.16
MIOS phosphosite_766 (phosphosite position: 766) (UniProt Q9NXC5) is entered as 2.58 ± 0.8	0.487

— the supplement of paper PMC5836539
